# According to PubChem BioAssay AID504467 (National Center for Advancing Translational Sciences (NCATS), 2011):
# Among all 330,000 compounds or so, about 7,700 (2.3%) were called active. This list was built around the results that the source calls inconclusive (neither active nor inactive); the mix of calls is not that of the screen. Calls come from the whole dose curve; as a rule, active = well fitted inhibition curve with a large enough effect; inconclusive = small, poorly fitted or top-dose-only effect, or effect the other way; inactive = flat fitted curve, though single readings scatter. Potencies of inconclusive entries are doubtful fits and often do not repeat.
# Assay: qHTS screen for small molecules that inhibit ELG1-dependent DNA repair in human embryonic kidney (HEK293T) cells expressing luciferase-tagged ELG1; note: nearly all actives have a fitted effect of over 55% in size
# Settings: HEK293T ELG1-luciferase reporter, luminescence, 16 h, DNA damage induced by 5-fluorouridine; activity change, negative = inhibition: at 46.1 µM (top of the series)
# Outline: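 Step one: seed 2,000 cells per well. Step two: pin-transfer compound or DMSO alongside 5-fluorouridine. Step three: incubate 16 hr, 37 °C, 5% CO2. Step four: add ONE-Glo, wait 30 min, read luminescence.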
# % is set by controls: 0 for no effect and ±100 for the full control effect; potency is the fitted concentration of half-maximal effect.
SMILES,Potency,"activity change, negative = inhibition"
COc1ccc(-n2c(=O)c3c(C)c(C)sc3n(Cc3ccc(F)cc3)c2=O)c(OC)c1,"inconclusive: 20.6 µM [inhibitor, single point]",–
COc1cc(/C(C)=N/NC(=S)NC(C)C)cc(OC)c1OC,"inconclusive: 20.6 µM [inhibitor, partial curve, poor fit]",–
Cc1c(C(=O)NCc2ccc(S(N)(=O)=O)cc2)oc2ccc(Cl)cc12,inactive,–
Cc1c(C(=O)N2CCCCC2)oc2ccc(Br)cc12,"inconclusive: 9.2 µM [activator, partial curve]",–
O=C(NCCCN1CCOCC1)c1cc(S(=O)(=O)N2CCN(c3ccccc3)CC2)ccc1Cl,inactive,–
O=C(Nc1ccc2c(c1)OCCO2)c1coc2ccccc2c1=O,"inconclusive: 20.6 µM [activator, partial curve]",–
O=C(COc1ccc(Cl)cc1Cl)N(C1CCCCC1)C1CCS(=O)(=O)C1 (stereo not given),"inconclusive: 1.16 µM [inhibitor, single point]",–
CC(C)=CC(=O)OCC(=O)Nc1ncc(Cl)c(C)c1Cl,"inconclusive: 1.16 µM [activator, single point]",–
Cc1cccn2c(=O)c3cc(C#N)c(=O)n(-c4c(C)n(C)n(-c5ccccc5)c4=O)c3nc12,"inconclusive: 15.8 µM [activator, partial curve, poor fit]",–
Cc1[nH]c2ccc(C(=O)N3CCN(C)CC3)cc2c1C,"inconclusive: 20.6 µM [activator, single point]",–
CC(C)OC(=O)C(C(=O)C(F)(F)F)c1cc(NS(=O)(=O)c2ccc3ccccc3c2)c2ccccc2c1O (stereo not given),"inconclusive: 29.1 µM [inhibitor, single point]",–
O=C(Nc1ccncc1)C1c2ccccc2Oc2ccccc21,inactive,–
Cc1ccc(OCC(O)CN2CCN(CC(O)COc3ccc(C)cc3)CC2)cc1 (stereo not given),"inconclusive: 16.4 µM [inhibitor, partial curve, poor fit]",–
Cn1c(SCc2ccc3c(c2)OCO3)nnc1-c1ccccc1,"inconclusive: 20.6 µM [activator, partial curve, poor fit]",–
CCNc1nc(NCC)n2c(SCC(=O)Nc3ccc(NC(C)=O)cc3)nnc2n1,inactive,–
COc1ccc(C(=O)CC(=O)c2ccccc2O)cc1,"inconclusive: 20 µM [activator, single point]",–
CC1CN(C(=O)c2ccc(COc3ccccc3Br)o2)CC(C)O1 (stereo not given),"inconclusive: 6.51 µM [inhibitor, single point]",–
Cc1ccc(C)c(NC(=O)C2CCN(C(=O)c3cccs3)CC2)c1,inactive,–
CCCc1cc(C(=O)N/N=C/c2cccn2C)cs1,"inconclusive: 20.6 µM [activator, partial curve]",–
NC(=O)CSc1nc2cccnc2n1-c1ccc(F)cc1,"inconclusive: 20.6 µM [inhibitor, single point]",–
Cc1ccc(NC(=O)C/C(N)=N/OC(=O)Nc2cccc(C)c2)cc1,"inconclusive: 10.3 µM [activator, partial curve]",–
O=C(Cc1ccsc1)N1CCN(S(=O)(=O)c2ccccc2F)CC1,inactive,–
COc1cc(C(=O)OCC(=O)NC2CCCC2)cc(NC(=O)c2ccco2)c1OC,"inconclusive: 20.6 µM [inhibitor, partial curve]",–
COc1ccc(CN(C)C(C)C(=O)NC2CCCc3ccccc32)cc1 (stereo not given),"inconclusive: 29.1 µM [inhibitor, single point]",–

SMILES,Potency,"activity change, negative = inhibition"
O=C1CSC(=S)N1/N=C/c1ccc(C(F)(F)F)cc1,inactive,–
O=C(COC(=O)c1ccco1)Nc1nc2ccccc2s1,–,inconclusive: 23.1% [activator]
Cc1cccc(NC(=O)/C=C/c2ccc([N+](=O)[O-])s2)c1,"inconclusive: 32.6 µM [inhibitor, single point]",–
NC(=O)c1ccc(OCC(=O)N2CCNC2=O)cc1,inactive,–
Cn1cccc1C(C(=O)NC1CCCCC1)N(C(=O)Cc1cccs1)c1ccc2c(c1)OCO2 (stereo not given),"inconclusive: 29.1 µM [activator, single point]",–
N=C1SCC(=O)N1c1ncc(Cc2ccc(F)cc2)s1,"inconclusive: 29.1 µM [activator, single point]",–
COc1ccc(C2=CC(=O)C[C@H](c3ccc(F)cc3)C2)cc1F,"inconclusive: 16.4 µM [inhibitor, single point]",–
CC(Oc1ccc(Cl)cc1Cl)C(=O)Nc1ccc(S(=O)(=O)Nc2cnc3ccccc3n2)cc1 (stereo not given),inactive,–
COC(=O)c1sc(-c2ccccc2)cc1NC(=O)C1CC1,"inconclusive: 10.3 µM [inhibitor, single point]",–
Cc1ccc(NC(=O)c2ccc(OC(F)(F)F)cc2)cc1S(=O)(=O)N(C)C,"inconclusive: 10.3 µM [inhibitor, partial curve]",–
CNc1oc(-c2ccc(Cl)cc2)nc1C#N,"inconclusive: 14.6 µM [activator, partial curve]",–
Cc1ccc(/C=C2/SC(=S)N(c3ccc(S(=O)(=O)Nc4nccs4)cc3)C2=O)cc1,"inconclusive: 29.1 µM [inhibitor, single point]",–
O=C(CN1C(=O)/C(=C/c2ccco2)SC1=S)Nc1ccc(C(=O)O)c(O)c1,inactive,–
O=C(/C=C/c1ccccc1)c1ccc2c3c(cccc13)CC2,"inconclusive: 16.4 µM [activator, partial curve]",–
CCOC(=O)C(=O)N(Nc1ccccc1C)c1ccccc1C,inactive,–
C/C(=N\NC(=O)c1ccc(Cn2cc(Br)cn2)o1)c1cccc(NC(=O)C(C)C)c1,active: 5.8 µM,–
CCCCN(C(=O)C(C)Oc1cccc(Cl)c1)c1c(N)n(CCC)c(=O)[nH]c1=O (stereo not given),inactive,–
CCCc1ccc(-c2cc(C(=O)NN3CCOCC3)c3ccccc3n2)cc1,"inconclusive: 8.91 µM [activator, partial curve]",–
CCOC(=O)N1CCC(=NNc2ncc(C(F)(F)F)cc2Cl)CC1,inactive,–
CCCn1c(N)c(C(=O)COC(=O)/C=C/c2ccc(OC(F)F)c(OC)c2)c(=O)[nH]c1=O,"inconclusive: 2.91 µM [inhibitor, full curve]",–
C=CCNc1ncnc2c1cnn2-c1ccc(C)cc1C,inactive,–
CCN(CC)c1ccc(N=Nc2ncn[nH]2)cc1,"inconclusive: 13 µM [activator, partial curve]",–
O=C(Nc1sc2c(c1-c1nc3ccccc3[nH]1)CCCC2)C1CCCC1,"inconclusive: 20.6 µM [inhibitor, single point]",–
COc1ccc(NC(=O)c2cccs2)cn1,"inconclusive: 29.1 µM [activator, single point]",–

# Some values from the list.
# Potency, O=C(/C=C/c1ccccc1)c1ccc2c3c(cccc13)CC2 is entered as inconclusive: 16.4 µM [activator, partial curve]
# Potency, COC(=O)c1sc(-c2ccccc2)cc1NC(=O)C1CC1 is entered as inconclusive: 10.3 µM [inhibitor, single point]
# Potency, NC(=O)CSc1nc2cccnc2n1-c1ccc(F)cc1 is entered as inconclusive: 20.6 µM [inhibitor, single point]

# Continued:

SMILES,Potency,"activity change, negative = inhibition"
Cn1cc(S(=O)(=O)Nc2ccc3c(c2)OCCO3)cn1,"inconclusive: 23.1 µM [activator, partial curve]",–
CC(=O)N1c2ccccc2NC2=C(C(=O)CCC2)C1c1ccco1 (stereo not given),inactive,–
COc1cccc(/C=N/NC(=O)c2cccc(N3CCCC3=O)c2)c1,"inconclusive: 18.3 µM [activator, partial curve]",–
Cc1ccc(CN(Cc2ccco2)C(=O)c2ccco2)cc1,inactive,–
COc1ccccc1-n1c2nc3ccccc3nc2c2c(=O)n(-c3cc(C)cc(C)c3)cnc21,"inconclusive: 8.2 µM [inhibitor, partial curve]",–
CCCCN(C)/C=N/c1c(C#N)cnn1-c1ccc(C)cc1,"inconclusive: 29.1 µM [activator, single point]",–
Cc1cc(-c2cccs2)c2c(N)c(C(=O)c3ccc4c(c3)OCO4)sc2n1,"inconclusive: 20.6 µM [inhibitor, single point]",–
COc1ccc(C2c3sc(=O)[nH]c3SCC2C(N)=O)cc1 (stereo not given),"inconclusive: 16.4 µM [activator, partial curve, poor fit]",–
CC(C)(C)NC(=O)CN(C(=O)CCC(=O)Nc1nccs1)c1ccc(F)c(Cl)c1,inactive,–
Cc1ccc(/C=C/C(=O)c2ccc([N+](=O)[O-])o2)cc1,"inconclusive: 35.5 µM [inhibitor, single point]",–
O=C(C1CC1)N1CCN(c2ccc(F)cc2)CC1,"inconclusive: 18.3 µM [activator, partial curve, poor fit]",–
O=C(Nc1ccc(Cl)cc1)c1cc(S(=O)(=O)Nc2ccccn2)ccc1Cl,inactive,–
CCc1nccn1-c1cc(C(C)(C)C)nc2c(-c3ccc(Cl)cc3)cnn12,"inconclusive: 23.1 µM [activator, partial curve]",–
N/C(=N\OC(=O)c1cc(Cl)ccc1Cl)c1cccnc1,"inconclusive: 11.6 µM [activator, partial curve]",–
C/C(=N\OCc1ccccc1C#N)c1cc2ccccc2o1,"inconclusive: 23.1 µM [activator, partial curve, poor fit]",–
O=C(NNC(=S)NCc1ccccc1)c1ccc(Br)o1,inactive,–
CN(C)C(=O)CCC(=O)N1CCCC(C(=O)c2ccc3c4c(cccc24)CC3)C1 (stereo not given),"inconclusive: 18.3 µM [inhibitor, single point]",–
Cc1cc(C(=O)C(C)OC(=O)c2cnccn2)c(C)n1-c1ccccc1 (stereo not given),"inconclusive: 9.2 µM [activator, single point]",–
O=C(CNC(=O)N1CC(=O)Nc2ccccc21)Nc1ccc(F)c(Cl)c1,inactive,–
O=C1c2ccccc2C(Nc2ccc(Cl)cn2)N1c1cccnc1 (stereo not given),inactive,–
O=C(Nc1cccc(S(=O)(=O)N2CCCCC2)c1)c1cncc(Br)c1,"inconclusive: 20.6 µM [inhibitor, single point]",–
O=[N+]([O-])c1nn(-c2ccc3c(c2)OCCO3)n(O)c1=NC1CCCCCC1,"inconclusive: 16.4 µM [activator, partial curve]",–
